Plain letter strings leave the end groups untold. Where only a bound is given, the exact number is not on record here.

This series can be described thus: Boc solid-phase peptide synthesis; peptidylglycine a-amidating monooxygenase resins. The following applies: whole synthesis, HPLC, C18 μBondapak column, linear gradient 0-60% acetonitrile in 0.1% trifluoroacetic acid.

Turning to KYGRRGDS, the “purity (crude or final not stated)” value is greater than 85%.

The record behind these values is patent US5149780A (The Scripps Research Institute, priority 1988, dated 1992).
